Test results published in patent US20100086602A1, “PHARMACEUTICAL COMPOSITION CONTAINING STATIN-ENCAPSULATED NANOPARTICLE” (priority 2006, published 2010).

Assays:
Format in all cases: in vivo, mice
[1] = test system: unilateral hindlimb ischemia; assay: Laser Doppler perfusion imaging of limb blood flow after hindlimb ischemia; conditions: single intramuscular injection containing 0.01 mg statin (0.5 mg/kg); days 0, 3, 7 and 14; versus no-treatment; listed as Ato
Protocol: (§1) A group of PLGA-Pit-mice (PLGA-Pit group) and a group of PEG/CS-PLGA-Pit-mice (PEG/CS-Pit group) received intramuscular injections of pitavastatin-loaded PLGA nanoparticles (0.18 mg/100 μl) and pitavastatin-loaded PEG/CS-PLGA nanoparticles (0.44 mg/100 μl, each containing 0.01 mg of pitavastatin), respectively. As control, a group of PLGA-mice (PLGA group) received intramuscular injections of PLGA nanoparticles (0.18 mg/100 μl) and another group of mice (NT group) received no treatment.

[2] = test system: unilateral hindlimb ischemia; assay: Capillary density by immunohistochemical staining with anti-mouse PECAM-1 (CD31) antibody; conditions: day 14 after hindlimb ischemia; 0.01 mg statin intramuscular
Protocol: as §1

[3] = test system: unilateral hindlimb ischemia; assay: Vascular structure of diameter over 20 μm in hindlimb muscle; conditions: day 14 after hindlimb ischemia; 0.01 mg atorvastatin intramuscular

SMILES: CC(C)c1c(C(=O)Nc2ccccc2)c(-c2ccccc2)c(-c2ccc(F)cc2)n1CC[C@@H](O)C[C@@H](O)CC(=O)O [atorvastatin]
- limb blood flow at ischemic side (LDPI index, ratio of ischemic to normal limb) [1]: no improvement of blood flow
- capillary density, endothelial cells (CD31 positive cells) [2]: comparable to no-treatment group
- vascular structure having diameter of over 20 μm [3]: comparable to no-treatment group
